{
  "source": "PubChem BioAssay AID214",
  "about": "(DTP/NCI, 2004)",
  "tested_on": "B6C3F1 mice, colon carcinoma 38 s.c., T/C",
  "experiment": "NCI In Vivo Anticancer Drug Screen. Data for tumor model Colon Carcinoma 38 (subcutaneous) in B6C3F1 mice",
  "conditions": "higher T/C = larger tumour",
  "method": "The antitumor activity of compounds was measured in mice bearing transplantable tumors. Survival or tumor size were measured and the results are expressed as the measurement made in the treated group (T) divided by the measurement made in the vehicle treated control group (C). The tumor model used in this assay is Colon Carcinoma 38 (subcutaneous) in B6C3F1 mice",
  "note": "The list is a part of this screen's results and no random one: it gathers tests that were run many times, whatever their T/C, doses with no T/C, and many T/C values between a quarter and a half above the control. Other doses and runs of a compound stand elsewhere. T/C: endpoint of the treated group in % of that of the vehicle group. Schedule codes are those of the source, taken here to give the interval after Q, in days (D) or hours (H), and the number of doses after X. Some entries were tested several times; their values stand side by side, smallest first. Some T/C values carry the count of animals alive at the toxicity check (mostly the fifth day); where none is given, no animal had died by that day. Some entries give survivors of the animals treated and no T/C: the source holds a T/C of zero for them, seemingly a mark for toxic or unscored doses. Counts of survivors are from the toxicity check (mostly the fifth day) where no day follows; animals may have died later.",
  "data": [
    {"compound": "CSCS(=O)C[C@H](CO)NC(=O)/C=C/c1c(C)[nH]c(=O)[nH]c1=O", "note": "(stereo partly specified)", "values": [
      {"measurement": "survivor count", "setting": "T/C endpoint: median tumor weight (est.), dose: 8.0 mg/kg/injection, schedule: Q07DX002 (ip), vehicle: saline", "result": "3 of 10 on day 20"},
      {"measurement": "survivor count", "setting": "T/C endpoint: median tumor weight (est.), dose: 16.0 mg/kg/injection, schedule: Q07DX002 (ip), vehicle: saline", "result": "0 of 10 on day 20"},
      {"measurement": "survivor count", "setting": "T/C endpoint: median tumor weight (est.), dose: 32.0 mg/kg/injection, schedule: Q07DX002 (ip), vehicle: saline", "result": "0 of 10 on day 20"}
    ]},
    {"compound": "CN(C)CCCNc1c2ccccc2nc2cccc([N+](=O)[O-])c12", "values": [
      {"measurement": "T/C", "setting": "T/C endpoint: median tumor weight (est.), dose: 0.03 mg/kg/injection, schedule: Q07DX002 (ip), vehicle: saline, evaluated on day 20", "result": "136 % of control"},
      {"measurement": "T/C", "setting": "T/C endpoint: median tumor weight (est.), dose: 0.12 mg/kg/injection, schedule: Q07DX002 (ip), vehicle: saline, evaluated on day 20", "result": "53, 78, 88, 91, 124, 166, 199, 213, 228 % of control"},
      {"measurement": "T/C", "setting": "T/C endpoint: median tumor weight (est.), dose: 0.25 mg/kg/injection, schedule: Q07DX002 (ip), vehicle: saline, evaluated on day 20", "result": "58 [9 of 10 alive on day 20], 79 [9 of 10 alive on day 20], 116, 139, 162 [8 of 10 alive on day 20], 172 % of control"},
      {"measurement": "survivor count", "setting": "T/C endpoint: median tumor weight (est.), dose: 0.25 mg/kg/injection, schedule: Q07DX002 (ip), vehicle: saline", "result": "0 of 10 on day 20, 2 of 10 on day 20, 6 of 10 on day 20"},
      {"measurement": "T/C", "setting": "T/C endpoint: median tumor weight (est.), dose: 0.5 mg/kg/injection, schedule: Q07DX002 (ip), vehicle: saline, evaluated on day 20", "result": "76 % of control [9 of 10 alive on day 20]"},
      {"measurement": "survivor count", "setting": "T/C endpoint: median tumor weight (est.), dose: 0.5 mg/kg/injection, schedule: Q07DX002 (ip), vehicle: saline", "result": "0 of 10 on day 20, 1 of 10 on day 20, 2 of 10 on day 20, 5 of 10 on day 20, 6 of 10 on day 20"},
      {"measurement": "survivor count", "setting": "T/C endpoint: median tumor weight (est.), dose: 1.0 mg/kg/injection, schedule: Q07DX002 (ip), vehicle: saline", "result": "0 of 10 on day 20 and 1 of 10 on day 20"}
    ]},
    {"compound": "COc1ccc2c(ccc3oc([N+](=O)[O-])cc32)c1", "values": [
      {"measurement": "T/C", "setting": "T/C endpoint: median tumor weight (est.), dose: 25.0 mg/kg/injection, schedule: Q07DX002 (ip), vehicle: saline with Tween-80, evaluated on day 20", "result": "130 % of control"}
    ]},
    {"compound": "C[C@@H]1CC[C@]2(C)CC[C@]3(C)C(=CC[C@@H]4[C@@]5(C)CC[C@@H](OC(=O)c6ccc(O)cc6)C(C)(C)[C@@H]5C[C@H](O)[C@]43C)[C@@H]2[C@H]1C(=O)O", "values": [
      {"measurement": "T/C", "setting": "T/C endpoint: median tumor weight (est.), dose: 0.25 mg/kg/injection, schedule: Q07DX002 (ip), vehicle: saline with Tween-80, evaluated on day 20", "result": "138 % of control"}
    ]},
    {"compound": "ClCCCN1CCN(CCCl)CC1", "values": [
      {"measurement": "survivor count", "setting": "T/C endpoint: median tumor weight (est.), dose: 40.0 mg/kg/injection, schedule: Q07DX002 (ip), vehicle: saline", "result": "0 of 10 on day 20"},
      {"measurement": "survivor count", "setting": "T/C endpoint: median tumor weight (est.), dose: 80.0 mg/kg/injection, schedule: Q07DX002 (ip), vehicle: saline", "result": "0 of 10 on day 20"}
    ]},
    {"compound": "CC(=O)OC1C(O)C(C)OC(OC2C(OC(=O)C3CCC4C(C3)OC3(CC(OC(=O)/C=C/c5ccccc5)C(C)CO3)C43CO3)OC(C)C(O)C2OC(C)=O)C1O", "note": "(stereo unspecified)", "values": [
      {"measurement": "survivor count", "setting": "T/C endpoint: median tumor weight (est.), dose: 120.0 mg/kg/injection, schedule: Q07DX002 (ip), vehicle: distilled water + Tween-80", "result": "0 of 10 on day 20"}
    ]},
    {"compound": "O=C(O)Cc1cccc2c(=O)cc(-c3ccccc3)oc12", "values": [
      {"measurement": "T/C", "setting": "T/C endpoint: median tumor weight (est.), dose: 63.0 mg/kg/injection, schedule: Q07DX002 (iv), vehicle: sodium bicarbonate, evaluated on day 20", "result": "139 % of control"},
      {"measurement": "T/C", "setting": "T/C endpoint: median tumor weight (est.), dose: 84.0 mg/kg/injection, schedule: Q07DX002 (iv), vehicle: sodium bicarbonate, evaluated on day 20", "result": "145 % of control [9 of 10 alive on day 20]"},
      {"measurement": "T/C", "setting": "T/C endpoint: median tumor weight (est.), dose: 112.0 mg/kg/injection, schedule: Q07DX002 (ip), vehicle: sodium bicarbonate, evaluated on day 20", "result": "131 % of control"},
      {"measurement": "T/C", "setting": "T/C endpoint: median tumor weight (est.), dose: 150.0 mg/kg/injection, schedule: Q07DX002 (ip), vehicle: sodium bicarbonate, evaluated on day 20", "result": "130 % of control"},
      {"measurement": "survivor count", "setting": "T/C endpoint: median tumor weight (est.), dose: 267.0 mg/kg/injection, schedule: Q07DX002 (iv), vehicle: clinical formulation", "result": "6 of 10 on day 20"},
      {"measurement": "survivor count", "setting": "T/C endpoint: median tumor weight (est.), dose: 356.0 mg/kg/injection, schedule: Q07DX002 (ip), vehicle: clinical formulation", "result": "0 of 10 on day 20"},
      {"measurement": "survivor count", "setting": "T/C endpoint: median tumor weight (est.), dose: 356.0 mg/kg/injection, schedule: Q07DX002 (iv), vehicle: clinical formulation", "result": "1 of 10 on day 20"},
      {"measurement": "survivor count", "setting": "T/C endpoint: median tumor weight (est.), dose: 474.0 mg/kg/injection, schedule: Q07DX002 (ip), vehicle: clinical formulation", "result": "0 of 10 on day 20"},
      {"measurement": "survivor count", "setting": "T/C endpoint: median tumor weight (est.), dose: 474.0 mg/kg/injection, schedule: Q07DX002 (ip), vehicle: sodium bicarbonate", "result": "6 of 10 on day 20"},
      {"measurement": "survivor count", "setting": "T/C endpoint: median tumor weight (est.), dose: 474.0 mg/kg/injection, schedule: Q07DX002 (iv), vehicle: clinical formulation", "result": "1 of 10 on day 20"},
      {"measurement": "T/C", "setting": "T/C endpoint: optimum tumor weight change, dose: 102.0 mg/kg/injection, schedule: Q07DX002 (ip), vehicle: water, evaluated on day 60", "result": "130 % of control"}
    ]}
  ]
}
